PubChem BioAssay AID720505 | Drosophila RNAi Screening Center, 2013
The screen tested about 20,000 reagents; shown is a random part of those with a known target gene and a result. Of all reagents, about 2,100 (10%) got an active call. 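Raw plate signals without normalisation; calls rest on control-based scores that were not deposited; replicate 2 separates called from uncalled poorly.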 Entries without a mark were called inactive. The record does not give: the amount of reagent, the time to read-out.

- Purpose: 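Genes needed for store-operated calcium entry in fly cells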 (primary screen)
- Cell system: Drosophila S2R+ cells
- Reagents: long dsRNA against Drosophila genes
- Treatment: thapsigargin (2 µM) in calcium-free buffer to empty internal stores, then 2 mM calcium added back
- Measurement: 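Fluo-4 signal in 384-well plates read on a FLIPR after thapsigargin (2 µM, calcium-free) store depletion and 2 mM calcium add-back; unnormalised mean endpoint per well; screen run twice, selected wells retested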
- Reading the numbers: calcium signal: higher = more calcium entry after store depletion
- Call rule: 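Knock-downs counted as hits when calcium entry dropped relative to STIM1 positive and Rho1 negative controls present on each plate; roughly 1500 genes called, with reductions of differing size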
- Meaning of the calls: active = called as lowering calcium entry; inactive = not called

The opening 2 entries, to show the layout:
CG9360 [DRSC20180]
- calcium signal, replicate 1: 110
- calcium signal, replicate 2: 91.6

CG9316 [DRSC03195]
- calcium signal, replicate 1: 167
- calcium signal, replicate 2: 78.7

The list itself, from the first entry:
CG9360 [DRSC20180]
- calcium signal, replicate 1: 110
- calcium signal, replicate 2: 91.6

CG9316 [DRSC03195]
- calcium signal, replicate 1: 167
- calcium signal, replicate 2: 78.7

CG32652 (retired record) [DRSC18942]
- calcium signal, replicate 1: 4670
- calcium signal, replicate 2: 138

CG32652 (retired record) [DRSC22662]
- calcium signal, replicate 1: 56 (active)
- calcium signal, replicate 2: 78.1

Khc [DRSC07448]
- calcium signal, replicate 1: 74.2 (active)
- calcium signal, replicate 2: 177

CG9067 [DRSC07328]
- calcium signal, replicate 1: 104
- calcium signal, replicate 2: 160

Papst2 [DRSC10924]
- calcium signal, replicate 1: 90.6
- calcium signal, replicate 2: 111

CG15347 [DRSC18031]
- calcium signal, replicate 1: 230
- calcium signal, replicate 2: 112

ft [DRSC00819]
- calcium signal, replicate 1: 145
- calcium signal, replicate 2: 227

Fdx1 [DRSC11167]
- calcium signal, replicate 1: 77.2
- calcium signal, replicate 2: 93.1

CG31798 [DRSC01702]
- calcium signal, replicate 1: 142
- calcium signal, replicate 2: 120

CG3491 [DRSC01934]
- calcium signal, replicate 1: 117
- calcium signal, replicate 2: 158

La [DRSC03358]
- calcium signal, replicate 1: 118
- calcium signal, replicate 2: 89.2

CG8915 [DRSC20119]
- calcium signal, replicate 1: 121
- calcium signal, replicate 2: 102

tant [DRSC11401]
- calcium signal, replicate 1: 54.5
- calcium signal, replicate 2: 63.4

CG10588 [DRSC11628]
- calcium signal, replicate 1: 85.2
- calcium signal, replicate 2: 163

Arc42 [DRSC14340]
- calcium signal, replicate 1: 162
- calcium signal, replicate 2: 161

Arc42 [DRSC15627]
- calcium signal, replicate 1: 185
- calcium signal, replicate 2: 179

DNAlig1 [DRSC04518]
- calcium signal, replicate 1: 129
- calcium signal, replicate 2: 99
